Consider 1 molecule from PMC4621509.

Results are given in words; binding and its absence hold for the method and conditions named. In cells and extracts the contact can be indirect. Some results given as binding are weak or reduced against the parent protein; the word gives no strength. Tags and fused reporters may be left off the sequences shown.

The target of the assay is T1, HA-Dyn2 (wild type dynamin2) (UniProt P50570).
T1 sequence: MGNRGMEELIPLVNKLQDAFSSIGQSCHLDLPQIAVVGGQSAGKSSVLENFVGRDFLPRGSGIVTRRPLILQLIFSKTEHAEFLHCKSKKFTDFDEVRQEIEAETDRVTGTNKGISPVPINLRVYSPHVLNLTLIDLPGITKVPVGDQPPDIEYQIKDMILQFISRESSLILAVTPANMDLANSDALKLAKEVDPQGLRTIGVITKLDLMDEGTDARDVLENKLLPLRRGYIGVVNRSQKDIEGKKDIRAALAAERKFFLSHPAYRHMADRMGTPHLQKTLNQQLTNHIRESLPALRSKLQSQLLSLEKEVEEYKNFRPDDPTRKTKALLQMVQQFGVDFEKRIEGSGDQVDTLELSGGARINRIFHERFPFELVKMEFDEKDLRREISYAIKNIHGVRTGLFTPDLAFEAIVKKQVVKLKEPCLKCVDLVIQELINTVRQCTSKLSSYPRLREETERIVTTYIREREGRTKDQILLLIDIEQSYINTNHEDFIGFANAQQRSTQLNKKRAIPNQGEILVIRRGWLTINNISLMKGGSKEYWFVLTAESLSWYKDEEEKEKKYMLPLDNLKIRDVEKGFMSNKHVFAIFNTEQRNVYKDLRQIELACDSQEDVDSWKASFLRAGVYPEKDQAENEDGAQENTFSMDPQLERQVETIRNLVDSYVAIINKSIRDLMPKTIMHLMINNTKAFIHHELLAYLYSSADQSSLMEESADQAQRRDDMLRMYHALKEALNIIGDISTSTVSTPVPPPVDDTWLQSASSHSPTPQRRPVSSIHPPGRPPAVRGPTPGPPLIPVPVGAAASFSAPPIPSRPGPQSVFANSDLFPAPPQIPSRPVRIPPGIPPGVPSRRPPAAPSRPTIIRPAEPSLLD
Put plainly: co-IP; Flag-EFA6B and HA-Dyn2 coexpressed in HEK293T cells (48 hr) together with mCherry-N1cβγ or mCherry-N2 (186-226); immunoprecipitation with anti-Flag antibody beads; coimmunoprecipitated Dyn2 blotted with anti-HA.

Take KQNRSTSTQVVFWAGILQAQMCVLDLEEELEKTEGLKAGLK (peptide, UniProt Q8NDX1 145-185) [mCherry-N1cβγ peptide of EFA6B (amino acids 145-185)]: the binding entry is reported as “binds”.
